Residue numbers refer to the chain shown, from its start. Results are given in words; binding and its absence hold for the method and conditions named. In cells and extracts the contact can be indirect. Some entries that bind do so weakly or less than the wild type. For part of these data: Tags and fused reporters may be left off the sequences shown.
Key:
Test in all cases: co-IP
[1] = target: T1, endogenous PER2 of HCT116 cells (human (endogenous in HCT116)) (UniProt O15055)
T1 sequence: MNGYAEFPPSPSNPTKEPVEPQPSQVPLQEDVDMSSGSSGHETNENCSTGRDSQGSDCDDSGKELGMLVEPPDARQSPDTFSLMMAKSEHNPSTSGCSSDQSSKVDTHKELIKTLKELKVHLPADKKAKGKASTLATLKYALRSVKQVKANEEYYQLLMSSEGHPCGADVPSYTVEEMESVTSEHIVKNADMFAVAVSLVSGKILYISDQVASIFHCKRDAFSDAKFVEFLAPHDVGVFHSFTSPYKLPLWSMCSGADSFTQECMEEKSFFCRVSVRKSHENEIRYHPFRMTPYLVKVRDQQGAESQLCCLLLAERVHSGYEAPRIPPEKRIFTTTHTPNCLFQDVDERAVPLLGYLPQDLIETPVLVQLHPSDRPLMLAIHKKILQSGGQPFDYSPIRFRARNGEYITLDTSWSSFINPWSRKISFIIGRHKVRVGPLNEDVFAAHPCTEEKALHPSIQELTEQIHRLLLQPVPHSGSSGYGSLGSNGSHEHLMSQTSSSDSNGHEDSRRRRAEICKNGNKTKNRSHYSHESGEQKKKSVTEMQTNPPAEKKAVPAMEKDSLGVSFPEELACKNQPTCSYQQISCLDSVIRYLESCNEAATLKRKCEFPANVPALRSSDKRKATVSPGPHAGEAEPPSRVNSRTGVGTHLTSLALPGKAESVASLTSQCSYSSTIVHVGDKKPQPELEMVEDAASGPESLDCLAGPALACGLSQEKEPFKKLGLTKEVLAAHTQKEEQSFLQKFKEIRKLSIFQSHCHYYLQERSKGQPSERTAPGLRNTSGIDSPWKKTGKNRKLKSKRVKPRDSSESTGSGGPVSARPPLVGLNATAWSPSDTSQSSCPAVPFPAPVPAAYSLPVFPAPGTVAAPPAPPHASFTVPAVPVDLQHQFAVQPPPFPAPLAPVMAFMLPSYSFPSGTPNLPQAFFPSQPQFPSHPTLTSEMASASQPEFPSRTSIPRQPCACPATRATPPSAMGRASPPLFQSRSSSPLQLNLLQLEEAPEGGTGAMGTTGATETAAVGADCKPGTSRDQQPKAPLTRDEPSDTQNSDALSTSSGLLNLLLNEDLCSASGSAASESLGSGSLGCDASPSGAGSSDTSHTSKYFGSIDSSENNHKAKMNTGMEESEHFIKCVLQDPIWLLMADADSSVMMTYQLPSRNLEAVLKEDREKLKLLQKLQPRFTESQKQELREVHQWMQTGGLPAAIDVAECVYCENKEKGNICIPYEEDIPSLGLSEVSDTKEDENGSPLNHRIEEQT

By UniProt entry, the sequences of proteins in these tests, tags left out.
UniProt Q00987: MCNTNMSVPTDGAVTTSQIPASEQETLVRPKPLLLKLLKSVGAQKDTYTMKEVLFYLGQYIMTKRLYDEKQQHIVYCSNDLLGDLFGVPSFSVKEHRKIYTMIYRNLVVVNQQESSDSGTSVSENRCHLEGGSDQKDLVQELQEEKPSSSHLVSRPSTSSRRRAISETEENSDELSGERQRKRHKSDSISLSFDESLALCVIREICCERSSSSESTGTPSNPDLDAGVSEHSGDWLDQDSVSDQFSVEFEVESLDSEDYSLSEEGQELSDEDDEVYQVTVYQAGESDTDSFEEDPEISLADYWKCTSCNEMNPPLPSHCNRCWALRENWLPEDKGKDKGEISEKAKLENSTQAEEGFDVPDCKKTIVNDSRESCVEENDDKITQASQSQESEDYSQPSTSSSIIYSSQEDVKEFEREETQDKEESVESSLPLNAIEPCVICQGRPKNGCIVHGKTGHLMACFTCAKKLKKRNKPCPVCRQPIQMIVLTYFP

[2] = target: T2, FLAG-PER2(S662A) expressed in HCT116 p53+/+ cells (human) (UniProt O15055)
T2 sequence: T1 sequence with S662A

[3] = target: T3, FLAG-PER2 expressed in HCT116 p53+/+ cells (human) (UniProt O15055)
T3 sequence: T1 sequence

Measured: binding

endogenous MDM2 of HCT116 p53+/+ cells (from UniProt Q00987 1-491)
binds: all assays above
